Some results were stated once for a whole list of compounds, not compound by compound. Some ranges recur; such a range may be that of the whole group of compounds.
Experiments:
[1] = system: sugar beet cercospora leaf spot microorganism (Cercospora beticola); assay: Antimicroorganism effect, mycelial extension on PDA plate; assay type: cell-based; conditions: PDA plate medium, 50 mg/l, 1 to 3 days
[2] = system: cucumber gray mold microorganism; assay: Cucumber gray mold preventing effect assay; assay type: in vivo, Botrytis cinerea; conditions: cucumber cotyledon phase, wettable formulation 500 mg/L sprayed at 1,000 L/ha, 4 days after inoculation
Experimental: The sprayed leaves were air-dried, and loaded with a paper disc (8 mm in diameter) soaked with a spore suspension of a cucumber gray mold microorganism, and kept at 20 degrees C. and a high humidity. 4 Days after inoculation, the cucumber gray mold severity was investigated, and the protective value was calculated by the following equation. [table]

wheat powdery mildew = assay: Wheat powdery mildew preventing effect by seed treatment; assay type: in vivo, Erysiphe graminis f. sp tritici; conditions: 2 mg compound per 1 g wheat seeds, 7, 14, 28 and 56 days after seeding, stems and leaves
[3] = system: wheat leaf rust microorganism; assay: Wheat leaf rust preventing effect assay; assay type: in vivo, Puccinia recondita; conditions: wheat two-leaf phase, 500 mg/L sprayed at 1,000 L/ha, 9 to 14 days after inoculation
[4] = system: barley loose smut microorganism (Ustilago nuda); assay: Antimicroorganism effect, mycelial extension on PDA plate; assay type: cell-based; conditions: PDA plate medium, 50 mg/l, 1 to 3 days
[5] = system: Tricoderma microorganism (Trichoderma sp.); assay: as above; assay type: cell-based; conditions: PDA plate medium, 50 mg/l, 1 to 3 days
[6] = system: Mucor microorganism (Mucor sp.); assay: as above; assay type: cell-based; conditions: PDA plate medium, 50 mg/l, 1 to 3 days
[7] = system: wheat fusarium blight microorganism (Fusarium graminearum); assay type: cell-based; conditions: PDA plate medium, 50 mg/l, 1 to 3 days
[8] = system: penicillium microorganism (Penicillium sp.); assay: Antimicroorganism effect, mycelial extension on PDA plate; assay type: cell-based; conditions: PDA plate medium, 50 mg/l, 1 to 3 days
[9] = system: sclerotinia rot microorganism (Sclerotinia sclerotiorum); assay: as above; assay type: cell-based; conditions: PDA plate medium, 50 mg/l, 1 to 3 days
[10] = system: wheat eye spot microorganism (Pseudocercosporella herpotrichoides); assay: as above; assay type: cell-based; conditions: PDA plate medium, 50 mg/l, 1 to 3 days
[11] = system: rice bakanae disease microorganism (Giberella fujikuroi); assay: as above; assay type: cell-based; conditions: PDA plate medium, 50 mg/l, 1 to 3 days
[12] = system: wheat take-all microorganism (Gaeumannomyces graminis); assay: as above; assay type: cell-based; conditions: PDA plate medium, 50 mg/l, 1 to 3 days
[13] = system: wheat septoria bloth microorganism (Septoria tritici); assay: as above; assay type: cell-based; conditions: PDA plate medium, 50 mg/l, 1 to 3 days
[14] = system: wood denaturing microorganism (Coriolus versicolor); assay: as above; assay type: cell-based; conditions: PDA plate medium, 50 mg/l, 1 to 3 days
[15] = system: wood denaturing microorganism (Tyromyces palustris); assay: as above; assay type: cell-based; conditions: PDA plate medium, 50 mg/l, 1 to 3 days
[16] = system: wheat stagonospora blotch microorganism (Phaeosphaeria nodorum); assay: as above; assay type: cell-based; conditions: PDA plate medium, 50 mg/l, 1 to 3 days
[17] = system: barley stripe microorganism (Pyrenophora graminea); assay: as above; assay type: cell-based; conditions: PDA plate medium, 50 mg/l, 1 to 3 days
[18] = system: Curvularia microorganism (Curvularia sp.); assay: as above; assay type: cell-based; conditions: PDA plate medium, 50 mg/l, 1 to 3 days
[19] = system: wheat powdery mildew microorganism; assay: Wheat powdery mildew preventing effect assay; assay type: in vivo, Erysiphe graminis f. sp tritici; conditions: wheat two-leaf phase, 500 mg/L sprayed at 1,000 L/ha, 14 days after inoculation
[20] = system: Cladosporium microorganism (Cladosporium sp.); assay: Antimicroorganism effect, mycelial extension on PDA plate; assay type: cell-based; conditions: PDA plate medium, 50 mg/l, 1 to 3 days
[21] = system: citrous blue mold microorganism (Penicillium italicum); assay: as above; assay type: cell-based; conditions: PDA plate medium, 50 mg/l, 1 to 3 days
[22] = system: ricesheath blight microorganism (Rhizoctonia solani); assay: as above; assay type: cell-based; conditions: PDA plate medium, 50 mg/l, 1 to 3 days
[23] = system: apple alternaria blotch microorganism (Alternaria alternata); assay: as above; assay type: cell-based; conditions: PDA plate medium, 50 mg/l, 1 to 3 days
rice plant = assay: Rice growth regulation assay; assay type: in vivo; conditions: seed treatment, 36 mg compound per 180 g rice seeds, plant height 20 days after seeding
[24] = system: barley scald microorganism (Rhynchosporium secalis); assay: Antimicroorganism effect, mycelial extension on PDA plate; assay type: cell-based; conditions: PDA plate medium, 50 mg/l, 1 to 3 days
[25] = system: cucumber fusarium wilt microorganism (Fusarium oxysporum); assay: as above; assay type: cell-based; conditions: PDA plate medium, 50 mg/l, 1 to 3 days
[26] = system: Aureobasidium microorganism (Aureobasidium sp.); assay: as above; assay type: cell-based; conditions: PDA plate medium, 50 mg/l, 1 to 3 days
[27] = system: anthracnose microorganism (Glomerella cingulata); assay: as above; assay type: cell-based; conditions: PDA plate medium, 50 mg/l, 1 to 3 days
[28] = system: Aspergillus microorganism (Aspergillus sp.); assay: as above; assay type: cell-based; conditions: PDA plate medium, 50 mg/l, 1 to 3 days
[29] = system: rice seedling blight microorganism (Rhizopus) (Rhizopus oryzae); assay: as above; assay type: cell-based; conditions: PDA plate medium, 50 mg/l, 1 to 3 days
[30] = system: gray mold microorganism (Botritis cinerea); assay: as above; assay type: cell-based; conditions: PDA plate medium, 50 mg/l, 1 to 3 days
[31] = system: rice blast microorganism (Pyricularia oryzae); assay type: cell-based; conditions: PDA plate medium, 50 mg/l, 1 to 3 days
[32] = system: wheat pink snow mold microorganism (Microdochium nivale); assay: Antimicroorganism effect, mycelial extension on PDA plate; assay type: cell-based; conditions: PDA plate medium, 50 mg/l, 1 to 3 days

OC1(Cn2cncn2)C(Cc2ccc(-c3ccccc3)cc2)CCC12CC2 (centres unmarked) [Compound I-49]
growth inhibition grade [1]: 5 (% Mycerial extension inhibition of 90% or higher) | protective value [2]: ≥ 80% | Powdery mildew controlling index (wheat powdery mildew): 4 (Protective value of 61 to 80) | protective value [3]: ≥ 80% | growth inhibition grade [4]: 4 (% Mycerial extension inhibition of less than 90 to 70% or higher) | growth inhibition grade [5]: 5 (% Mycerial extension inhibition of 90% or higher) | growth inhibition grade [6]: 4 (% Mycerial extension inhibition of less than 90 to 70% or higher) | growth inhibition grade [7]: 5 (% Mycerial extension inhibition of 90% or higher) | growth inhibition grade [8]: 5 (% Mycerial extension inhibition of 90% or higher) | growth inhibition grade [9]: 5 (% Mycerial extension inhibition of 90% or higher) | growth inhibition grade [10]: 5 (% Mycerial extension inhibition of 90% or higher) | growth inhibition grade [11]: 5 (% Mycerial extension inhibition of 90% or higher) | growth inhibition grade [12]: 5 (% Mycerial extension inhibition of 90% or higher) | growth inhibition grade [13]: 5 (% Mycerial extension inhibition of 90% or higher) | growth inhibition grade [14]: 5 (% Mycerial extension inhibition of 90% or higher) | growth inhibition grade [15]: 5 (% Mycerial extension inhibition of 90% or higher) | growth inhibition grade [16]: 5 (% Mycerial extension inhibition of 90% or higher) | growth inhibition grade [17]: 5 (% Mycerial extension inhibition of 90% or higher) | growth inhibition grade [18]: 4 (% Mycerial extension inhibition of less than 90 to 70% or higher) | protective value [19]: ≥ 80% | growth inhibition grade [20]: 5 (% Mycerial extension inhibition of 90% or higher) | growth inhibition grade [21]: 5 (% Mycerial extension inhibition of 90% or higher) | growth inhibition grade [22]: 4 (% Mycerial extension inhibition of less than 90 to 70% or higher) | growth inhibition grade [23]: 4 (% Mycerial extension inhibition of less than 90 to 70% or higher) | growth regulation grade (rice plant): 4 (% Plant height suppression of less than 50 to 30% or higher) | growth inhibition grade [24]: 5 (% Mycerial extension inhibition of 90% or higher) | growth inhibition grade [25]: 5 (% Mycerial extension inhibition of 90% or higher) | growth inhibition grade [26]: 4 (% Mycerial extension inhibition of less than 90 to 70% or higher) | growth inhibition grade [27]: 5 (% Mycerial extension inhibition of 90% or higher) | growth inhibition grade [28]: 5 (% Mycerial extension inhibition of 90% or higher) | growth inhibition grade [29]: 4 (% Mycerial extension inhibition of less than 90 to 70% or higher) | growth inhibition grade [30]: 5 (% Mycerial extension inhibition of 90% or higher) | growth inhibition grade [31]: 5 (% Mycerial extension inhibition of 90% or higher) | growth inhibition grade [32]: 4 (% Mycerial extension inhibition of less than 90 to 70% or higher)

OC1(Cn2cncn2)C(Cc2ccc(Cl)c(Cl)c2)CCC12CC2 (centres unmarked) [Compound I-63]
growth inhibition grade [1]: 5 (% Mycerial extension inhibition of 90% or higher) | protective value [2]: ≥ 80% | Powdery mildew controlling index (wheat powdery mildew): 4 (Protective value of 61 to 80) | protective value [3]: ≥ 80% | growth inhibition grade [4]: 4 (% Mycerial extension inhibition of less than 90 to 70% or higher) | growth inhibition grade [5]: 5 (% Mycerial extension inhibition of 90% or higher) | growth inhibition grade [6]: 4 (% Mycerial extension inhibition of less than 90 to 70% or higher) | growth inhibition grade [7]: 5 (% Mycerial extension inhibition of 90% or higher) | growth inhibition grade [8]: 5 (% Mycerial extension inhibition of 90% or higher) | growth inhibition grade [9]: 5 (% Mycerial extension inhibition of 90% or higher) | growth inhibition grade [10]: 5 (% Mycerial extension inhibition of 90% or higher) | growth inhibition grade [11]: 5 (% Mycerial extension inhibition of 90% or higher) | growth inhibition grade [12]: 5 (% Mycerial extension inhibition of 90% or higher) | growth inhibition grade [13]: 5 (% Mycerial extension inhibition of 90% or higher) | growth inhibition grade [14]: 5 (% Mycerial extension inhibition of 90% or higher) | growth inhibition grade [15]: 5 (% Mycerial extension inhibition of 90% or higher) | growth inhibition grade [16]: 5 (% Mycerial extension inhibition of 90% or higher) | growth inhibition grade [17]: 5 (% Mycerial extension inhibition of 90% or higher) | growth inhibition grade [18]: 4 (% Mycerial extension inhibition of less than 90 to 70% or higher) | protective value [19]: ≥ 80% | growth inhibition grade [20]: 5 (% Mycerial extension inhibition of 90% or higher) | growth inhibition grade [21]: 5 (% Mycerial extension inhibition of 90% or higher) | growth inhibition grade [22]: 4 (% Mycerial extension inhibition of less than 90 to 70% or higher) | growth inhibition grade [23]: 4 (% Mycerial extension inhibition of less than 90 to 70% or higher) | growth regulation grade (rice plant): 4 (% Plant height suppression of less than 50 to 30% or higher) | growth inhibition grade [24]: 5 (% Mycerial extension inhibition of 90% or higher) | growth inhibition grade [25]: 5 (% Mycerial extension inhibition of 90% or higher) | growth inhibition grade [26]: 4 (% Mycerial extension inhibition of less than 90 to 70% or higher) | growth inhibition grade [27]: 5 (% Mycerial extension inhibition of 90% or higher) | growth inhibition grade [28]: 5 (% Mycerial extension inhibition of 90% or higher) | growth inhibition grade [29]: 4 (% Mycerial extension inhibition of less than 90 to 70% or higher) | growth inhibition grade [30]: 5 (% Mycerial extension inhibition of 90% or higher) | growth inhibition grade [31]: 5 (% Mycerial extension inhibition of 90% or higher) | growth inhibition grade [32]: 4 (% Mycerial extension inhibition of less than 90 to 70% or higher)
